Measurements from PubChem BioAssay AID540256 (National Center for Advancing Translational Sciences (NCATS), 2011).
Values joined by “and” are separate entries in the source; they are usually repeats but may differ in a detail not shown here. Equal entries are not always repeated. The whole screen tested about 300,000 compounds, of which about 3,700 (1.2%) were called active. Inconclusive means that the source gave no clear call. Such entries were picked first, then a sample of the others. Calls come from the whole dose curve; tested in HEK293 cells. Potencies beside an inconclusive call are fits to weak or partial responses and may not hold up.

Assay: qHTS for Inhibitors of binding or entry into cells for Lassa Virus; note: nearly all actives have a fitted effect of over 50% in size
Conditions: Lassa virus pseudotype entry inhibition, cell reporter; activity change, negative = inhibition: at 37.9 µM (top of the series) unless noted
% is set by controls: 0 for no effect and ±100 for the full control effect; potency is the fitted concentration of half-maximal effect.

SMILES | Potency | activity change, negative = inhibition
NS(=O)(=O)c1ccc(NC(=O)CSc2nc3ccccc3n2-c2ccccc2)cc1 | inconclusive: 13 µM [inhibitor, partial curve] | 
O=C(CCCN1C(=O)/C(=C\c2cccs2)SC1=S)NNC(=O)c1ccncc1 | inconclusive: 6.31 µM [inhibitor, single point] | 
Cc1ccc(-n2nnnc2C(Cl)(Cl)c2nnnn2-c2ccc(C)cc2)cc1 | inconclusive: 7.3 µM [inhibitor, partial curve, poor fit] | 
O=C(Nc1nnc(C2CC2)s1)C1Cc2ccccc2CN1C(=O)c1ccco1 (stereo not drawn) |  | inactive: 0.611%
COC(=O)c1ccc(-c2ccco2)n1Cc1nc(-c2ccc(OC)c(OC)c2)oc1C | inconclusive: 15.8 µM [inhibitor, partial curve, poor fit] | 
COc1cc(Cl)cc2c1Sc1ccccc1/C2=C/CCN(C)C | inconclusive: 35.5 µM [inhibitor, single point] | 
CCCN(CCC)CCCNC(=O)Cn1cnc2sc(C)c(S(=O)(=O)N3CCC(C)CC3)c2c1=O | inactive | 
Cn1c(SCC(=O)Nc2nc3ccccc3s2)nnc1-c1ccccc1 | inconclusive: 25.1 µM [activator, partial curve, poor fit] | 
Cc1[nH]n2c(=O)cc(C(C)(C)C)nc2c1-c1ccccc1 | active: 10 µM | 
Cc1cc(=O)oc2cc(OCC(=O)c3ccccc3)ccc12 | inconclusive: 28.2 µM [inhibitor, single point] | 
Cc1cccc(NS(=O)(=O)c2ccc3c(c2)CCN3C(=O)C2CCC2)c1 | inconclusive: 35.5 µM [inhibitor, single point] | 
COc1ccc(OC)c(S(=O)(=O)NCc2csc(-c3ccccc3)n2)c1 |  | inactive: -5.98%
COc1ccc(/C=C/c2nnc(NC(=O)C(C)C)s2)cc1 | inconclusive: 28.2 µM [inhibitor, single point] | 
Cc1ccccc1/C=C/c1nc2ccccc2c(=O)n1Cc1ccccc1 |  | inactive: 5.06%
COc1ccc(Cc2nnc(NC(=O)C3CC(=O)N(CCc4ccc(F)cc4)C3)s2)cc1OC (stereo not drawn) | inconclusive: 31.6 µM [inhibitor, partial curve, poor fit] | 
O=C(Nc1ccccc1)c1ccc[nH]1 |  | inactive: 4.32%
NC1=NS(=O)(=O)NC1c1cccc(F)c1 (stereo not drawn) |  | inactive: -2.38% [at 46.1 µM]
Cc1ccc(C)c(NC(=O)Cn2c(=O)n(Cc3ccccc3)c(=O)c3oc4ccccc4c32)c1 |  | inactive: 20.5% [at 46.1 µM]
Cc1ccc2cccc(NS(=O)(=O)c3ccccc3)c2n1 | inconclusive: 22.4 µM [inhibitor, single point] | 
Cc1cc(C)cc(N2C(=O)NC(=O)/C(=C\c3cc(C)n(C)c3C)C2=O)c1 |  | inactive: -4.47%
COc1ccc(CNc2ncnc3cc(Cl)ccc23)cc1 | inconclusive: 0.708 µM [inhibitor, partial curve, poor fit] | 
COC(=O)C1=C(C(=O)OC)SC2(S1)C(C(=O)OC)=C(C(=O)OC)SC1=C2c2cc(C)cc(C)c2NC1(C)C | inconclusive: 14.1 µM [activator, single point] | 
CCCCn1c(O)c(C(C)=NCc2ccc(F)cc2)c(=O)[nH]c1=O |  | inactive: -22%

SMILES | Potency | activity change, negative = inhibition
COc1ccccc1-c1noc(-c2ccc(NC(C)C)c([N+](=O)[O-])c2)n1 | inconclusive: 35.5 µM [inhibitor, single point] | 
CN(CC(=O)Nc1ccccc1Br)C(=O)COc1cccc2c1OC(C)(C)C2 | inconclusive: 35.5 µM [inhibitor, single point] | 
Cc1ccc(S(=O)(=O)NCCOc2nc(N(C)C)nc(N3CCOCC3)n2)cc1 | inconclusive: 3.26 µM [inhibitor, full curve] | 
COCC1CN(CCc2ccc(F)cc2)[S+](=O)([O-])c2c(OCCN3C(=O)[C@H]4[C@H](C3=O)[C@H]3C=C[C@@H]4C3)cccc2O1 (stereo partly drawn) | inconclusive: 3.15 µM [activator, single point] | 
COC(=O)Cn1cnc2c(cnn2-c2ccc(OC)cc2)c1=O |  | inactive: 11.6% [at 46.1 µM]
O=S(=O)(Nc1cccc(-c2ccc(N3CCCCCC3)nn2)c1)c1ccc(C(F)(F)F)cc1 | inconclusive: 20 µM [activator, partial curve, poor fit] | 
COc1cc([C@H]2[C@@H]3CCCC[C@]3(O)CCN2Cc2ccccc2F)ccc1O | inconclusive: 3.26 µM [inhibitor, partial curve, poor fit] | 
CC(C)(C)c1ccc(C(=O)NCC(=O)OCC(=O)Nc2ccccc2[N+](=O)[O-])cc1 |  | inactive: -0.878%
CCCCc1cc(=O)oc2cc(OCC(=O)N(CC)CC)ccc12 |  | inactive: 2.72%
CCOC(=O)C1CCN(c2ncnc3c2oc2ccc(Cl)cc23)CC1 | inconclusive: 1.12 µM [activator, full curve, poor fit] | 
Cc1ccc(NCCC(=O)c2cccs2)cc1Cl |  | inactive: 12%
O=C(Cc1ccc(Cl)c(Cl)c1)N1CCOCC1 | inconclusive: 10 µM [activator, partial curve] | 
Cc1ccc(OCC(=O)N(Cc2ccc(N(C)C)cc2)C2CCS(=O)(=O)C2)cc1C (stereo not drawn) | inconclusive: 7.94 µM [inhibitor, partial curve, poor fit] | 
O=S(=O)(c1ccc2c(c1)OCCO2)N1CCN(c2ncnc3sccc23)CC1 | inconclusive: 3.66 µM [inhibitor, full curve] | 
COc1ccc2oc(=O)c(-c3nc(-c4cccs4)no3)cc2c1 |  | inactive: -2.62% [at 46.1 µM]
O=C(c1ccco1)N1N=C(c2ccc(Br)cc2)CC1(O)C(F)(F)F (stereo not drawn) | inconclusive: 12.6 µM [inhibitor, partial curve, poor fit] | 
O=C(NC1CC(=O)N(c2ccc(F)cc2)C1)C1CC1 (stereo not drawn) |  | inactive: -1.52% [at 46.1 µM]
COc1cc(NC(=O)CCCn2c(=S)[nH]c3ccccc3c2=O)cc(OC)c1OC | inconclusive: 1.26 µM [inhibitor, single point] | 
CC(C)NC(=O)CCN1C(=O)c2ccccc2Sc2ncccc21 |  | inactive: 0.823% [at 46.1 µM]
Cc1cc2ccccn2c1C(=O)Nc1ccccc1 | inconclusive: 6.31 µM [activator, single point] | 
CC1(C)Cc2c(ccc3ccccc23)C2=C(C(=O)N3CCCC3)C(=O)C(=O)N21 | inconclusive: 1.12 µM [inhibitor, full curve] | 
CC[N+]1(C)CCC(O)(/C=C/c2ccccc2)C(C(=O)/C=C/c2ccccc2)C1 (stereo not drawn) | inconclusive: 20 µM [inhibitor, single point] | 
CCc1ccc(NC(=O)Cn2cc(S(=O)(=O)N3CCCC3)c(S(=O)(=O)N3CCCC3)c2)cc1 | inconclusive: 20 µM [activator, single point] | 

SMILES | Potency | activity change, negative = inhibition
N#Cc1c2n(c3c(=O)n(Cc4ccccc4Cl)cnc13)CCCC2 | inconclusive: 29.1 µM [inhibitor, single point] | 
O=C(CN1CCCC1)NCC1(c2ccccc2)CCOCC1 | inconclusive: 2.31 µM [inhibitor, partial curve] | 
CC(C)(C)C(=O)Nc1nc(-c2ccc3c(c2)OCO3)cs1 | inconclusive: 35.5 µM [inhibitor, single point] | 
COc1ccc(NC(=O)CN2C(=O)C(C)Oc3ccc(C)cc32)cc1 (stereo not drawn) | inconclusive: 0.316 µM [inhibitor, partial curve, poor fit] | 
O=C(CSCc1cnn(-c2ccccc2)c1-n1cccc1)NCc1cccnc1 | inconclusive: 35.5 µM [inhibitor, partial curve, poor fit] | 
CN1CCC(N(C)C(=S)NCCc2ccccc2)CC1 | inconclusive: 35.5 µM [inhibitor, single point] | 
CC(C(=O)c1ccccc1)N1C(=O)c2ccccc2C1=O (stereo not drawn) | inconclusive: 20.6 µM [activator, single point] | 
CCCC(O)(c1ccc(Br)cc1)C(CN1CCOCC1)c1ccc(Cl)cc1 (stereo not drawn) | inconclusive: 35.5 µM [inhibitor, partial curve, poor fit] | 
COc1ccccc1N(C)S(=O)(=O)c1ccc(C(=O)NCCc2ccc(F)cc2)cc1 | inconclusive: 20 µM [inhibitor, single point] | 
O=C(COc1ccccc1)NNC(=O)c1cc2ccccc2o1 |  | inactive: 2.62%
Cc1ccnc(NC(=O)CNC(=O)c2sc3ccccc3c2Cl)c1 |  | inactive: -23.6%
Cc1cc2c(cc(C(=O)OCC(=O)NCc3ccco3)n2C)s1 | inconclusive: 5.8 µM [inhibitor, full curve, poor fit] | 
O=S(=O)(c1ccc2c(c1)oc1ccccc12)N1CCOCC1 |  | inactive: 5.28%
O=C(CCN1CCOCC1)c1ccc(Cl)cc1 | inconclusive: 1.26 µM [inhibitor, single point] | 
Cc1cccnc1NC(=S)Nc1ccc(F)cc1F |  | inactive: 4.15%
O=C(c1cc(-c2ccc(O)cc2)on1)N1CCN(c2ccccc2)CC1 | inconclusive: 35.5 µM [inhibitor, single point] and inconclusive: 1.12 µM [inhibitor, partial curve, poor fit] | 
O=C(CSc1ccc(Cl)cc1)N1CCOCC1 |  | inactive: 7.75%
COc1ccc(NC(=O)c2ccc(Cl)c(S(=O)(=O)N3CCc4ccccc4C3)c2)cn1 | inconclusive: 29.1 µM [inhibitor, single point] | 
C/C(=N\Oc1cccc(F)n1)c1ccc(Cl)cc1Cl | inconclusive: 10 µM [inhibitor, partial curve, poor fit] | 
O=C(Cn1cnc([N+](=O)[O-])n1)N/N=C/c1ccccc1O | inconclusive: 17.8 µM [inhibitor, single point] | 
CCOc1cccc(C(=O)Nc2nnc(-c3ccco3)s2)c1 | inconclusive: 7.94 µM [inhibitor, partial curve, poor fit] | 
COc1cccc(Nc2nc3ccc(C)cc3nc2-n2nc(C)cc2C)c1 |  | inactive: 28.4% [at 46.1 µM]
